# This is one part of the list. The data scatter; read single values as rough.
# The chains behind the UniProt entries cited, without tags or fusion partners. Where a name states a change or a piece, a line headed by the entry shows the natural chain unless it says otherwise. Residues count along the entry.
# UniProt Q6NXT6: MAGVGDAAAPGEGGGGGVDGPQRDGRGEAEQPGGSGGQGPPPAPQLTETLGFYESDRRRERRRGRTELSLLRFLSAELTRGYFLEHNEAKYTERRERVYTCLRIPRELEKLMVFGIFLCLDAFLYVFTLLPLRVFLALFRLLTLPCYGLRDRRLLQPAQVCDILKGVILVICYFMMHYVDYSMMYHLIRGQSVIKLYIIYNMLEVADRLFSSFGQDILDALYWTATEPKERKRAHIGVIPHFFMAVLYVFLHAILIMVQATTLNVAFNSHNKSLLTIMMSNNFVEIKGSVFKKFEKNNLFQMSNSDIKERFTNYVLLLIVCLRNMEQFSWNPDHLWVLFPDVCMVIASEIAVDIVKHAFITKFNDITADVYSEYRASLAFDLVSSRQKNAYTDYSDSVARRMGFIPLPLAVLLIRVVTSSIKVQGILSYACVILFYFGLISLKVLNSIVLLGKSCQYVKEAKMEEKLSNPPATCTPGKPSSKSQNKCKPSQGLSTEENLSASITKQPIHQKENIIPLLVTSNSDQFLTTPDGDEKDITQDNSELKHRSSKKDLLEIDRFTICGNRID
# UniProt Q9Y4C2: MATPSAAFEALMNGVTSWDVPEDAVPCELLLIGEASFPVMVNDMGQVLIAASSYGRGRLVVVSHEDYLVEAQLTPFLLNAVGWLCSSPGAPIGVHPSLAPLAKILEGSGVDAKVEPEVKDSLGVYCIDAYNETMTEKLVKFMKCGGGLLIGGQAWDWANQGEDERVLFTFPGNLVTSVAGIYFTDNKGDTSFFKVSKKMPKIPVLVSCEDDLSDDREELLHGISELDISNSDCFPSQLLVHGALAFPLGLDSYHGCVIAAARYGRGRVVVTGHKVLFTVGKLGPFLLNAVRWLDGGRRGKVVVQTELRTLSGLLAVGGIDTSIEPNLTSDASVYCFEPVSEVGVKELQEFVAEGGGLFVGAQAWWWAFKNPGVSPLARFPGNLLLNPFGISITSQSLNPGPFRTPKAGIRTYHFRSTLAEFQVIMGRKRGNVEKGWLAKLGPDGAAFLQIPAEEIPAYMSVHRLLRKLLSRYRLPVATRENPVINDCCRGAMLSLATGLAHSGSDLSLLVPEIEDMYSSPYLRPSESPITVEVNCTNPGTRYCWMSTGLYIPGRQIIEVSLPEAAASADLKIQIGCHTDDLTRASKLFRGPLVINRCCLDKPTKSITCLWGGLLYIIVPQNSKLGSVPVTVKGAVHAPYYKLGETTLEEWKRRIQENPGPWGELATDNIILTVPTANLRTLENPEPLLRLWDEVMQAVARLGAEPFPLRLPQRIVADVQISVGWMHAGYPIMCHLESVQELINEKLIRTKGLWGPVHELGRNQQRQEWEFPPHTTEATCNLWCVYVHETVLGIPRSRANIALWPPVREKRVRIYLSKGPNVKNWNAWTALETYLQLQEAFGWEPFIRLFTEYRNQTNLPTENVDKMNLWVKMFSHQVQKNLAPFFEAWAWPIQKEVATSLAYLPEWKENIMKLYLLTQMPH
# UniProt O75410: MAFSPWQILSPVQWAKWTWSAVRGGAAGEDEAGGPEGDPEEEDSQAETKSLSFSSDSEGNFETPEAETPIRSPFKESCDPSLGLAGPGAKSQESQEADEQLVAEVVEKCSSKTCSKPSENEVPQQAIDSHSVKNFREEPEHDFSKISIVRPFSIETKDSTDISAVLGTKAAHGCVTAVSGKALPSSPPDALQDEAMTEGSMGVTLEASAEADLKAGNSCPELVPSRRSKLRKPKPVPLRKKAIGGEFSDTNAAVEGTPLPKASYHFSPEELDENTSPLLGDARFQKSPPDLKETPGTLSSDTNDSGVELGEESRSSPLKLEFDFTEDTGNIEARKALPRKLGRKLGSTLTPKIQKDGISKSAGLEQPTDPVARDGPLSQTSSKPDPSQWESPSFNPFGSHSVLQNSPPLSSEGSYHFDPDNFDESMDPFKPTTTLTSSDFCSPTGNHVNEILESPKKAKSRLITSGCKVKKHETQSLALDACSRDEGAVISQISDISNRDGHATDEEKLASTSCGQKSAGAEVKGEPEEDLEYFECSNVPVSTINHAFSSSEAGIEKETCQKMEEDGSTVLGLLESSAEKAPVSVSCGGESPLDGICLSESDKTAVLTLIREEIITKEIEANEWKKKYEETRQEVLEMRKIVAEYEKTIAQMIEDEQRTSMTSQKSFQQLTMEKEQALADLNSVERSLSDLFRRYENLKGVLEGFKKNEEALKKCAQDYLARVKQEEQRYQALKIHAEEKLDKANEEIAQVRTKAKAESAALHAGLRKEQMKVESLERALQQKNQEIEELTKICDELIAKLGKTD
# UniProt O60343, 93-122: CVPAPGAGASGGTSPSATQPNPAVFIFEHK
# UniProt P52888, whole entry, looked up: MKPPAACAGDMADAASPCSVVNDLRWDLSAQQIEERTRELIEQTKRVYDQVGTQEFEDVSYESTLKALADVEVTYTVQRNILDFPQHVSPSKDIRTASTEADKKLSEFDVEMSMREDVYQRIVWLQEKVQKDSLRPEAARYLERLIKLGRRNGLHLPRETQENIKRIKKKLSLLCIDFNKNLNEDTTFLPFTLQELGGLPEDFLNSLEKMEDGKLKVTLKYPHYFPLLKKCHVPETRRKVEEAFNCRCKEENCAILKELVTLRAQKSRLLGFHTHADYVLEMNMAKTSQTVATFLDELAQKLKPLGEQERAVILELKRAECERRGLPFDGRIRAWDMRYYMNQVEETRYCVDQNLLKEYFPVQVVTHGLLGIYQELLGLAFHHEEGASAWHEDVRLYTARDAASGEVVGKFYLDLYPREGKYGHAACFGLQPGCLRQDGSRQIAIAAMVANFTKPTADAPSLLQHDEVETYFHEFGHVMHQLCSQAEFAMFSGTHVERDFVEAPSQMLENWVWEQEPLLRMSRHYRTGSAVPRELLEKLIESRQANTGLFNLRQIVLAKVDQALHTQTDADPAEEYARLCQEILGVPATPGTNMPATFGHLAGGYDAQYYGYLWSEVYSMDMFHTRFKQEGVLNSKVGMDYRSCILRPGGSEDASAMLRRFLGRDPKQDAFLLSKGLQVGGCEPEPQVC
# UniProt Q8WVM0: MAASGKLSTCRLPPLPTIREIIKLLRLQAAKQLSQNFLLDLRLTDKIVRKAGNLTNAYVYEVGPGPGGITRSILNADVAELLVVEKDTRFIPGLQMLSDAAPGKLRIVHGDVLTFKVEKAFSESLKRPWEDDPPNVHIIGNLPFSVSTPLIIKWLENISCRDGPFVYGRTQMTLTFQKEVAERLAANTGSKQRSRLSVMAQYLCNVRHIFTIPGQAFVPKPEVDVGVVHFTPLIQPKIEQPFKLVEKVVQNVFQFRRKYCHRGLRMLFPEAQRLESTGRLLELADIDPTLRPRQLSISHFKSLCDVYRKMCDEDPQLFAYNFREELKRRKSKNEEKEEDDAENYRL
# UniProt Q15572: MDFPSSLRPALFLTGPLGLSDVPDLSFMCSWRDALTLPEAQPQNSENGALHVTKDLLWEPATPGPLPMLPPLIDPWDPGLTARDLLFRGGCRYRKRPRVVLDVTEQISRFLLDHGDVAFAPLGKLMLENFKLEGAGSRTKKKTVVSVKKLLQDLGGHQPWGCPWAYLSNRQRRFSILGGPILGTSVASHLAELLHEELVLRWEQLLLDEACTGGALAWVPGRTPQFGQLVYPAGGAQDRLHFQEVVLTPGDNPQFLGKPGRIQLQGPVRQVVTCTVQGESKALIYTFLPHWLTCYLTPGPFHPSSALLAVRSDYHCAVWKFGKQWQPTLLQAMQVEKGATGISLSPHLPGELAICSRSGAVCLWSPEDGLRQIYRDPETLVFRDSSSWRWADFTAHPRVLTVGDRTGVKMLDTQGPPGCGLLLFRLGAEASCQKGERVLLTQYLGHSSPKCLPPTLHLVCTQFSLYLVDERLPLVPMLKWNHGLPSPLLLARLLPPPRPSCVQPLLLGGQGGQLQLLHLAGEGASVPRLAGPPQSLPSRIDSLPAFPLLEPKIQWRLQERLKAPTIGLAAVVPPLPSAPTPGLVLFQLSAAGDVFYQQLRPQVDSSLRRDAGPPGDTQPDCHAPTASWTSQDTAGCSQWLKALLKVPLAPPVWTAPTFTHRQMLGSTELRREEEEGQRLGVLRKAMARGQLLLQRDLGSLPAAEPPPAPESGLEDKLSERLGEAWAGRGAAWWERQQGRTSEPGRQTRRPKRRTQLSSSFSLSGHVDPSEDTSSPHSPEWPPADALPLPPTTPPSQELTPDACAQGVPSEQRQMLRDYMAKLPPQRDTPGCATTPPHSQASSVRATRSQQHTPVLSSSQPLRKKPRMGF
# UniProt Q6I9Y2: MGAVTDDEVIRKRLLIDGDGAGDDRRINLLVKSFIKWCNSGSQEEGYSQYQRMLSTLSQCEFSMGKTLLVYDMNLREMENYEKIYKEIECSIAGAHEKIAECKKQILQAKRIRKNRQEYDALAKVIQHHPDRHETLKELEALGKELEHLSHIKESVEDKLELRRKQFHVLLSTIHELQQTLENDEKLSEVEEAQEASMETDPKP
# Assays:
# [1] = compound: ClCC(=O)N[C@@H]1CCCc2ccccc12; experiment: log2 mean competition ratio of IA-DTB cysteine labelling (DMSO/compound) (log2 ratio); higher = stronger cysteine engagement by compound; details: treatment time: 4 h, cell line lysate: HEK293T
# Protocol: (§1)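 IA-DTB competitive cysteine chemoproteomics in HEK293T RIPA lysate. Lysates were treated with compound 29 or 30 at 50 or 200 µM for 4 h, then IA-DTB (500 µM, 1 h), trypsin-digested, NeutrAvidin-enriched and analysed by diaPASEF. Competition ratio = intensity DMSO / intensity compound (n=4 treated, n=64 DMSO); binding: mean log2 CR ≥ 1 and p ≤ 0.05 plus QC filters. Target is the cysteine site.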
# [2] = compound: ClCC(=O)N[C@H]1CCCc2ccccc12; experiment: as above; details: treatment time: 4 h, cell line lysate: HEK293T
# Protocol: as §1
Target,log2 mean competition ratio ([1]; 50 µM),log2 mean competition ratio ([1]; 200 µM),log2 mean competition ratio ([2]; 50 µM),log2 mean competition ratio ([2]; 200 µM)
TGFBRAP1 C582 (UniProt Q8WUH2),-0.0783,-0.348,-0.2,-0.143
THOC3 C65 (UniProt Q96J01),0.147,-0.0753,0.364,-0.0841
TAB1 C235 (UniProt Q15750),-0.178,-0.388,0.0358,0.128
TAPT1 C474 (UniProt Q6NXT6),0.223,-0.0544,0.0557,-0.105
TAX1BP1 C271 (UniProt Q86VP1),-0.363,-0.539,0.235,-0.21
TANC1 C1808 (UniProt Q9C0D5),-0.133,-0.0391,0.199,0.00378
TET2 C332 (UniProt Q6N021),0.0467,0.0666,0.199,0.0264
TEX30 C21 (UniProt Q5JUR7),-0.0395,-0.126,-0.271,-0.128
TCP1 C76 (UniProt P17987),0.0605,-0.312,-0.286,-0.404
TANC2 C162 (UniProt Q9HCD6),0.114,-0.36,0.154,-0.0833
TERF2 C207 (UniProt Q15554),-0.203,-0.324,0.214,-0.182
TFAM C246 (UniProt Q00059),-0.146,0.142,-0.139,0.187
TECPR1 C84 (UniProt Q7Z6L1),-0.135,-0.124,-0.134,-0.117
THNSL1 C324 (UniProt Q8IYQ7),0.0722,0.14,0.0675,0.297
TCF7L2 C372,-0.171,-0.271,0.175,-0.0586
TBC1D2B C38 (UniProt Q9UPU7),0.0101,0.153,0.637,0.322
TBC1D10A C324 (UniProt Q9BXI6),0.465,0.333,0.0373,0.335
TBC1D9B C839 (UniProt Q66K14),0.367,0.613,0.478,0.58
TBP C221 (UniProt P20226),0.0552,0.0886,0.00789,0.122
TARBP1 C202 (UniProt Q13395),0.644,-0.096,-0.412,-0.126
TIAM1 C1061,-0.0305,-0.221,0.224,0.0433
TAPBP C115 (UniProt O15533),0.072,0.0713,0.125,0.134
TBL3 C477 (UniProt Q12788),0.286,-0.339,0.045,-0.404
TASOR2 C739 (UniProt Q5VWN6),-0.474,-0.491,-0.0935,-0.382

Target,log2 mean competition ratio ([1]; 50 µM),log2 mean competition ratio ([1]; 200 µM),log2 mean competition ratio ([2]; 50 µM),log2 mean competition ratio ([2]; 200 µM)
TCEAL5;TCEAL6;TCEAL3 C149;(C143);(C143),0.00883,0.134,-0.0349,0.281
TICRR C1791 (UniProt Q7Z2Z1),0.287,0.16,-0.105,0.148
TCAF1 C576 (UniProt Q9Y4C2),0.0616,0.206,-0.383,0.189
TACC1 C174 (UniProt O75410),0.0606,-0.154,0.279,-0.172
THNSL1 C299 (UniProt Q8IYQ7),0.275,-0.384,-0.626,-0.713
THAP4 C269 (UniProt Q8WY91),-0.0963,-0.156,-0.194,-0.0668
SZT2 C2893 (UniProt Q5T011),-0.333,-0.225,-0.296,-0.252
TBP C262 (UniProt P20226),0.241,0.0323,-0.0773,0.000485
TCF7 C291,0.0166,-0.14,0.111,0.00497
TAPR1 C259,-0.00236,-0.0718,-0.206,0.0141
TACC1 C219 (UniProt O75410),0.111,-0.236,0.188,-0.112
TBC1D2B C651 (UniProt Q9UPU7),-0.043,0.0989,-0.0714,-0.0787
TBC1D4 C93 (UniProt O60343),-0.00142,-0.084,0.501,-0.144
TCP1 C357 (UniProt P17987),-0.0767,-0.133,-0.464,0.023
THOP1 C350 (UniProt P52888),0.313,-0.24,0.0169,-0.316
TFB1M C160 (UniProt Q8WVM0),-0.00853,-0.111,-0.0703,-0.0847
TCF20 C1163 (UniProt Q9UGU0),0.477,0.032,0.194,0.0151
TAF1C C432 (UniProt Q15572),-0.0445,0.12,-0.0928,-0.000472
TFB1M C304 (UniProt Q8WVM0),0.127,0.0371,0.0682,0.00995
THOC7 C90 (UniProt Q6I9Y2),-0.127,-0.31,-0.279,-0.393
TET1 C1881 (UniProt Q8NFU7),0.0258,-0.0136,0.273,0.166
TAF1D C36,0.128,-0.333,0.328,-0.19
TBCD C269,0.132,0.00346,0.0466,-0.0116
TFIP11 C445 (UniProt Q9UBB9),-0.0978,0.119,-0.0953,-0.0574

# Laid out differently: results already given.
Target	log2 mean competition ratio ([1]; 50 µM)	log2 mean competition ratio ([1]; 200 µM)	log2 mean competition ratio ([2]; 50 µM)	log2 mean competition ratio ([2]; 200 µM)
THAP4 C269 (UniProt Q8WY91)	-0.0963	-0.156	-0.194	-0.0668
TFB1M C304 (UniProt Q8WVM0)	0.127	0.0371	0.0682	0.00995
TAF1D C36	0.128	-0.333	0.328	-0.19
